Source: PubChem BioAssay AID1259308 (NCATS, 2017)

Aim: 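Knock-downs that increase output of a recombinant reporter protein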 (primary screen)
Cells: human HEK293 embryonic kidney cells stably expressing firefly luciferase (HEK-CMV-Luc2-Hygro)
Knock-down reagent: single siRNA against human genes, 0.8 pmol siRNA per well
Time to read-out: 72 h
Measurement: 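Luciferase light (ONE-Glo) measured on one replicate plate set and viability (CellTiter-Glo) on the other, scaled to a negative control siRNA, with robust z-scores and luciferase per cell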
Reading the numbers: total luciferase, z-score and total luciferase, % of control: higher = more reporter protein produced; luciferase per cell, z-score: higher = more reporter output per viable cell; viable cells, % of control: higher = more viable cells
Hit rule: 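An siRNA counts as active if its total luciferase robust z-score exceeds 3; genes with two or more such siRNAs out of three were retested with fresh siRNAs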
Meaning of the calls: active = raised luciferase; inactive = no rise
The whole screen tested about 59,000 reagents; shown is an unselected part. About 1,510 of all reagents (2.6%) were called active. 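Calls use total luciferase alone and ignore viability, so some active siRNAs may act by altering cell number.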 The numbers tell different reagents against one gene apart. No sequences are given here.

gene symbol | siRNA no. | total luciferase, z-score | total luciferase, % of control | luciferase per cell, z-score | viable cells, % of control | call
OTOGL | 1 | -0.178 | 78.4 | -0.123 | 90.4 | inactive
OTOGL | 2 | -1.04 | 61.2 | -0.474 | 77.5 | inactive
OTOGL | 3 | 0.603 | 93.9 | 0.00352 | 105 | inactive
RNASEK | 1 | -0.193 | 78.1 | -0.0601 | 88.6 | inactive
RNASEK | 2 | 0.193 | 85.7 | 1.25 | 68.9 | inactive
RNASEK | 3 | 0.666 | 95.1 | 1.17 | 78.2 | inactive
LINC00926 | 1 | -0.343 | 75.1 | -0.421 | 93.7 | inactive
LINC00926 | 2 | 1.43 | 110 | 0.767 | 101 | inactive
LINC00926 | 3 | 2.05 | 123 | 1.98 | 81.3 | inactive
UBA2 | 1 | 1.14 | 105 | 1.9 | 70.9 | inactive
UBA2 | 2 | 0.0972 | 83.8 | -0.258 | 100 | inactive
UBA2 | 3 | 0.0575 | 83 | 0.282 | 86.1 | inactive
NLRP5 | 1 | -0.0602 | 80.7 | 0.357 | 82.1 | inactive
NLRP5 | 2 | 0.54 | 92.6 | 0.611 | 88.1 | inactive
NLRP5 | 3 | 0.156 | 85 | -0.256 | 102 | inactive
ATP2A2 | 1 | 0.0778 | 83.4 | -0.995 | 121 | inactive
ATP2A2 | 2 | -0.0352 | 81.2 | -0.713 | 109 | inactive
ATP2A2 | 3 | 2.04 | 122 | 2.33 | 74.1 | inactive
CDC42BPB | 1 | -0.898 | 64 | -0.147 | 74.4 | inactive
CDC42BPB | 2 | -0.336 | 75.2 | -0.935 | 108 | inactive
CDC42BPB | 3 | 0.753 | 96.9 | 1.82 | 67 | inactive
RAX2 | 1 | -0.369 | 74.6 | -0.538 | 96 | inactive
RAX2 | 2 | -0.32 | 75.5 | -0.499 | 96.2 | inactive
RAX2 | 3 | 0.779 | 97.4 | 0.793 | 88.3 | inactive
COPB1 | 1 | 1.14 | 105 | 1.64 | 75.9 | inactive
COPB1 | 2 | 0.195 | 85.8 | 0.726 | 79.2 | inactive
COPB1 | 3 | 2.6 | 134 | 3.27 | 63.1 | inactive
MYH7 | 1 | 1.26 | 107 | 2.15 | 67.8 | inactive
MYH7 | 2 | -0.137 | 79.2 | 0.262 | 82.6 | inactive
MYH7 | 3 | 0.704 | 95.9 | 0.698 | 89.2 | inactive
CENPBD2P | 1 | 0.502 | 91.9 | 2.54 | 52.6 | inactive
CENPBD2P | 2 | 2.16 | 125 | 2.41 | 74 | inactive
CENPBD2P | 3 | 1.97 | 121 | 2.58 | 68.6 | inactive
CD300LF | 1 | -0.736 | 67.2 | -0.158 | 78.3 | inactive
CD300LF | 2 | 0.765 | 97.1 | 0.15 | 104 | inactive
CD300LF | 3 | 0.301 | 87.9 | 0.187 | 93.5 | inactive
LRP2 | 1 | 0.658 | 95 | -0.345 | 116 | inactive
LRP2 | 2 | 0.0938 | 83.8 | 0.00125 | 93.6 | inactive
LRP2 | 3 | -0.387 | 74.2 | -0.753 | 101 | inactive
VIM | 1 | 1.41 | 110 | 1.26 | 88.1 | inactive
VIM | 2 | 0.567 | 93.2 | 0.016 | 104 | inactive
VIM | 3 | 0.266 | 87.2 | 0.987 | 75.1 | inactive
C12orf56 | 1 | -0.03 | 81.3 | 0.641 | 76.7 | inactive
C12orf56 | 2 | -0.216 | 77.6 | -0.147 | 90.1 | inactive
C12orf56 | 3 | -0.99 | 62.2 | -1.23 | 96.1 | inactive
BNIP3L | 1 | 1.09 | 104 | 0.983 | 89.3 | inactive
BNIP3L | 2 | 0.218 | 86.2 | 0.481 | 84.9 | inactive
BNIP3L | 3 | -0.542 | 71.1 | -0.227 | 84.4 | inactive
C4orf33 | 1 | -0.199 | 77.9 | -0.0759 | 88.8 | inactive
C4orf33 | 2 | -0.242 | 77.1 | -0.467 | 97.4 | inactive
C4orf33 | 3 | -0.368 | 74.6 | -0.241 | 88.8 | inactive
SOD3 | 1 | -0.0107 | 81.7 | -0.108 | 93.9 | inactive
SOD3 | 2 | 0.221 | 86.3 | -0.269 | 103 | inactive
SOD3 | 3 | -0.121 | 79.5 | -0.464 | 100 | inactive
MS4A1 | 1 | -0.247 | 77 | -0.6 | 101 | inactive
MS4A1 | 2 | 0.75 | 96.8 | 1.44 | 74 | inactive
MS4A1 | 3 | 0.00545 | 82 | -0.124 | 94.7 | inactive
OTOA | 1 | 0.395 | 89.7 | 2.78 | 48.2 | inactive
OTOA | 2 | 1.41 | 110 | 1.13 | 91.3 | inactive
OTOA | 3 | 0.0764 | 83.4 | -0.506 | 106 | inactive
SAFB2 | 1 | -1.22 | 57.6 | -1.32 | 91 | inactive
SAFB2 | 2 | 1.75 | 117 | 0.54 | 113 | inactive
SAFB2 | 3 | 1.57 | 113 | 1.57 | 83.6 | inactive
NDUFA8 | 1 | -1.36 | 54.8 | -0.602 | 71.8 | inactive
NDUFA8 | 2 | 0.0229 | 82.3 | -0.0168 | 92.4 | inactive
NDUFA8 | 3 | -0.611 | 69.7 | -0.553 | 90.1 | inactive
CTDNEP1 | 1 | -0.737 | 67.2 | -1.23 | 104 | inactive
CTDNEP1 | 2 | -0.809 | 65.8 | -1.07 | 97.5 | inactive
CTDNEP1 | 3 | -0.777 | 66.4 | -1.52 | 111 | inactive
PANK4 | 1 | -1.49 | 52.2 | -0.88 | 73.5 | inactive
PANK4 | 2 | 1.77 | 117 | 0.796 | 106 | inactive
PANK4 | 3 | 1.07 | 103 | 0.926 | 90.4 | inactive
ZNF256 | 1 | -0.59 | 70.2 | -0.173 | 82.1 | inactive
ZNF256 | 2 | 0.27 | 87.2 | -0.0055 | 97.6 | inactive
ZNF256 | 3 | -0.185 | 78.2 | -0.401 | 97.1 | inactive
